Reference: patent US20230220122A1, “METHOD FOR PRODUCTION OF FUNCTIONAL POLYSACCHARIDE AND COSMETIC COMPOSITION” (CARBOEXPERT INC., priority 2019, published 2023)

System: BALB/3T3 clone A31
Test: in vitro 3T3 NRU phototoxicity test
Type: cell-based
Procedure: This test was to evaluate phototoxicity after treating cells of BALB/3T3 clone A31 with a sample in the in vitro 3T3 NRU phototoxicity test. The phototoxicity was identified by evaluating cell viability, IC50 according to the presence or absence of light irradiation, and phototoxicity according to concentration response [photo irritation factor (PIF), and mean photo effect (MPE)].
In addition, as a negative control group, PBS diluted in DMEM was used.
Each of test substances was dissolved in PBS and diluted in steps at […] 2.
UVA (315-400 nm) causing a phototoxic reaction by activating chemical materials without toxicity to cells was irradiated, and the amount of light was 5 J/cm^2.
100 μl of cell suspension (1×10^4 cells/well) and medium were dispensed into two 96 well plates per group, and the cells were cultured for 24 hours in a cell incubator at 37° C. and 5% CO^2.
After removing the medium, the cells were washed once with 150 μl of warm PBS.
The UV irradiation plate was irradiated with UVA at a light intensity of 5 J/cm^2, and while UV was irradiated, the non-irradiated plate was shielded with aluminum foil and left at room temperature. After removing the solution, washing was performed twice with 150 μl of warm PBS. 100 μl of the medium was dispensed and the cells were cultured for 20±2 hours in a cell incubator at 37° C. and 5% CO2.
The growth and morphology of the cells were observed using a microscope, the medium was removed therefrom, and then the cells were washed once with 150 μl of warm PBS. After dispensing 100 μl of neutral red medium, the cells were incubated for 3 hours in a cell incubator at 37° C. and 5% CO2. After removing the neutral red medium, the cells were washed once with 150 μl of warm PBS. 150 μl of neutral red extract was dispensed, and the plate was stirred for 10 minutes while light was shielded.
Absorbance was measured at a wavelength of 540 nm by using a multi-channel microplate reader.
Phototoxicity was judged by calculating PIF and MPE values using IC50 according to the presence or absence of light irradiation.
PIF and MPE values were calculated from the measured absorbance values by using the software (Phototox 2.6, ZEBET at the BFR, Berlin Germany), and no statistical method was performed.

SMILES: CN(C)CCCN1c2ccccc2Sc2ccc(Cl)cc21 [CPZ]
- OD540 Mean (UV (+), 0.04 μg/mL): 0.528
- OD540 Mean (UV (+), 0.08 μg/mL): 0.456
- OD540 Mean (UV (+), 0.16 μg/mL): 0.508
- OD540 Mean (UV (+), 0.31 μg/mL): 0.549
- OD540 Mean (UV (+), 0.63 μg/mL): 0.530
- OD540 Mean (UV (+), 2.5 μg/mL): 0.059
- OD540 Mean (UV (+), 5 μg/mL): 0.063
- OD540 Mean (UV (−), 1.56 μg/mL): 0.589
- OD540 Mean (UV (−), 3.13 μg/mL): 0.554
- OD540 Mean (UV (−), 6.25 μg/mL): 0.617
- OD540 Mean (UV (−), 25 μg/mL): 0.352
- OD540 Mean (UV (−), 50 μg/mL): 0.051
- OD540 Mean (UV (−), 100 μg/mL): 0.050
- OD540 Mean (UV (−), 200 μg/mL): 0.050
